Laboratory results taken from PubChem BioAssay AID2685 (National Center for Advancing Translational Sciences (NCATS), 2010).
The campaign covered roughly 320,000 compounds. About 2,100 (0.66%) were called active. Inconclusive results, whose numbers are uncertain, are shown with a selection of clear calls. Calls follow the shape of the dose curve; as a rule, active = well fitted inhibition curve with a large enough effect in the signal ratio, with a control signal flat (not every such curve was filed as active); inconclusive = small, poorly fitted or top-dose-only effect, or effect the other way, or a change in a side signal; inactive = flat fitted curve, though single readings scatter; the % refers to the signal ratio. Where the call is inconclusive, the potency comes from a doubtful curve fit.

assay: qHTS Assay for Lipid Storage Modulators in Drosophila S3 Cells; conditions: BODIPY lipid droplet fluorescence, 18-24 h, cells fed with added oleic acid; lipid storage change, negative = inhibition: at 46.1 µM (top of the series) unless noted
Outline: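 Laser-scanning cytometry quantifies lipid droplet accumulation (500–530 nm total intensity; droplet/cell object ratio) in oleic acid-fed (400 uM added) Drosophila S3 cells treated with a concentration series. 20 uM Triacsin C defined 100% inhibition.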
% is scaled to controls: 0 for no effect and ±100 for the full control effect; potency is read from the fitted curve at half-maximal effect.

Compound | lipid storage change, negative = inhibition | Potency | outcome
CC(Oc1ccc(Cl)cc1Cl)C(=O)Nc1ccc(O)cc1 (stereo unspecified) | inconclusive: 36.9% | – | –
COc1ccc(N2CCN(C(=O)c3ccc(Br)cc3)CC2)c([N+](=O)[O-])c1 | inconclusive: -40.4% [cytotoxic] [at 0.369 µM] | – | –
Cc1sc2nc(C(C)Nc3ccccc3N3CCOCC3)[nH]c(=O)c2c1C (stereo unspecified) | inconclusive: -10.2% | – | –
COc1cc(OC)cc(-c2nnc(SCC(=O)N3CCOCC3)o2)c1 | inconclusive: -26.8% | – | –
NS(=O)(=O)c1ccc(NC(=O)COC(=O)c2ccc(Cl)nc2)cc1 | inconclusive: -76% | – | –
Cc1ccc(CN=C2NC(=O)C(CC(=O)NCCc3ccccc3)S2)cc1 (stereo unspecified) | inconclusive: 34.4% | – | –
CCOc1ccc(NC(=S)NCCCN2CCN(C3CCCCC3)CC2)cc1 | – | inconclusive: 0.82 µM [falling, full curve, poor fit] | –
COc1ccccc1CNC(=O)C(=O)NCC1OCCN1C(=O)c1ccc(Cl)cc1 (stereo unspecified) | inconclusive: 0.323% | – | –
O=C(NNS(=O)(=O)c1ccccc1)c1ccc(S(=O)(=O)N2CCCCC2)cc1 | inconclusive: -12.7% | – | –
CCc1ccc(C(=O)NNC(=O)C2CC(=O)N(c3ccc4c(c3)OCCO4)C2)cc1 (stereo unspecified) | – | inconclusive: 23.1 µM [activator, single point] | –
COc1ccc(C(=O)CSc2nnc(-c3ccccn3)n2Cc2ccco2)cc1 | inconclusive: 21.6% | – | –
CNC(=S)N1CCc2cc(OC)c(OC)cc2C1COc1ccc(OC)cc1 (stereo unspecified) | inconclusive: -2.24% | – | –
CCCCOCC1CN(c2ccccc2)C(=O)CS1 (stereo unspecified) | – | inconclusive: 3.26 µM [activator, single point] | –
CC(C(=O)NC1CCCCCC1)n1cc([N+](=O)[O-])cn1 (stereo unspecified) | inconclusive: -100% | – | –
CN(C)CCNC(=O)NC1CCCCC1 | – | inconclusive: 29.1 µM [falling, single point] | –
CNC(=S)N/N=C(\C)c1ccc(C(C)(C)C)cc1 | inconclusive: -29.3% | – | –
Cc1cc(=O)[nH]c(N/N=C/c2ccc(Cl)cc2Cl)n1 | inactive: 13.3% | – | –
S=C(NCCc1ccccn1)Nc1cc(Cl)cc(Cl)c1 | inconclusive: -56.8% | – | –
COc1cc(CNc2ccc3[nH]c(=O)[nH]c3c2)ccc1OCc1ccccc1C | inconclusive: -25.4% | – | –
CCOC(=O)CSc1[nH]c2cc(OC)ccc2c1[N+](=O)[O-] | – | inconclusive: 3.66 µM [falling, full curve, poor fit] | –
O=C(CSc1nnc(COc2ccccc2)n1-c1ccccc1)c1ccccc1 | – | inconclusive: 25.9 µM [activator, partial curve] | –

Compound | lipid storage change, negative = inhibition | Potency | outcome
N#Cc1cnn2ccn(C3OC(CO)C(O)C3O)c12 (stereo unspecified) | inconclusive: -18.6% | – | –
COc1ccc(C(C(=O)NC2CCCC2)N(Cc2cccnc2)C(=O)c2snc(C(N)=O)c2N)cc1OC (stereo unspecified) | inconclusive: 26.9% | – | –
COc1ccc(-c2ccnc3c(C(=O)O)cnn23)cc1 | inconclusive: -9.21% | – | –
O=C(COC(=O)CCS(=O)(=O)c1ccccc1)NC(=O)c1ccc(OC(F)F)cc1 | inconclusive | – | –
O=C(Nc1ccccc1N1CCOCC1)C1=NN(c2c(F)c(F)cc(F)c2F)C(=O)CC1 | – | inconclusive: 18.4 µM [falling, partial curve, poor fit] | –
Cc1c([N+](=O)[O-])c([N+](=O)[O-])nn1CC(=O)NCCc1ccccc1 | inactive: -10.5% | – | –
COc1cccc(S(=O)(=O)NCc2ccc(C(=O)Nc3ccc(Cl)cc3)cc2)c1 | inconclusive: -23.2% | – | –
Cc1onc(-c2ccccc2)c1C(=O)N/N=C/c1ccc(Br)cc1 | inactive: 24.8% | – | –
O=c1[nH]c(C2CCN(S(=O)(=O)c3cccc([N+](=O)[O-])c3)CC2)nc2c1nnn2Cc1ccccc1 | inconclusive: 32.5% | – | –
CCCCC(=O)NC(=S)Nc1cccc(NC(=O)c2ccccc2)c1 | inconclusive: 5.83% | – | –
O=C(CNC(=O)c1nc[nH]c1C(=O)NCc1ccccc1)OCc1ccccc1 | inconclusive: -16.7% | – | –
CC1CCN(c2ccccc2NC(=S)NC(=O)c2ccc(-c3cccc([N+](=O)[O-])c3)o2)CC1 | inconclusive: 27.7% | – | –
O=C(Cn1nc(C(F)F)cc1C1CC1)N1CCCC1 | inconclusive: 7.97% | – | –
CN(CC(=O)NCCc1ccc(F)cc1)Cc1ccc(Br)cc1 | inconclusive: -188% | – | –
COc1ccccc1Nc1nc(-c2sc(NC(=O)CC(C)C)nc2C)cs1 | inconclusive: 5.47% | – | –
O=C(NCCN1C(=O)S/C(=C\c2cccc(Cl)c2Cl)C1=O)C1=COCCO1 | – | active: 11.6 µM | –
O=C(Nc1nnc(S(=O)(=O)N2CCCC2)s1)c1ccccc1Cl | – | inconclusive: 0.731 µM [activator, partial curve, poor fit] | –
NC(=O)NC(Cc1ccccc1)C(=O)NCC1(N2CCCCC2)CCCCC1 (stereo unspecified) | inconclusive: 6.79% | – | –
CNc1snc(C)c1C(=O)OC(C)C(=O)c1ccc(F)cc1 (stereo unspecified) | inconclusive: 28.5% | – | –
O=C(Nc1cccc(Cl)c1)NC1CC2CCC(C1)N2Cc1ccco1 (stereo unspecified) | – | inconclusive: 0.58 µM [rising, single point] | –
N#CCCn1c(SCC(=O)N2CCN(S(=O)(=O)c3ccccc3)CC2)nc2ccccc21 | inconclusive: 18.6% | – | –

Compound | lipid storage change, negative = inhibition | Potency | outcome
Cc1ccccc1NC(=O)c1ccccc1NC(=O)c1ccccc1F | inconclusive: 10.3% | – | –
O=C(CCN1C(=O)/C(=C/c2ccco2)SC1=S)Nc1ccc(C(=O)O)c(O)c1 | inactive: -2.83% | – | –
Cc1c(C(=O)N2CCCC2)c(S(=O)(=O)Nc2ccccc2Cl)c(C)n1C | inconclusive: 105% | – | –
Cn1c(SCC(=O)c2ccc(F)cc2)nnc1-c1cccnc1 | inconclusive: 6.15% | – | –
COc1ccc(OCC(O)CNc2ccc(Br)cc2)cc1 (stereo unspecified) | inconclusive: -17.1% | – | –
Cc1ccc(C)c(NC(=O)CCN2CCN(c3ccccc3F)CC2)c1 | inconclusive: 13.5% | – | –
CCc1ccc(CN2C(=O)c3ccccc3C2C(=O)NCc2cccnc2)cc1 (stereo unspecified) | inconclusive: 0.524% | – | –
CC(=O)c1ccc(N2CCN(CC(=O)N(CC(C)C)c3c(N)n(CC(C)C)c(=O)[nH]c3=O)CC2)cc1 | – | inconclusive: 0.82 µM [falling, full curve, poor fit] | –
CC(C)NC(=O)Cn1c(SCC(=O)NC2CCCC2)nc2ccccc21 | – | inconclusive: 2.91 µM [activator, partial curve] | –
CCOc1ccc(-c2nnn(CC(=O)c3ccc4c(c3)OCCO4)n2)cc1 | inconclusive: 11.9% | – | –
O=C(O)c1ccc(CN2CCOCC2)o1 | inconclusive: 8.61% | – | –
CCOc1ccc(C(=O)NC2=NCCS2)cc1 | inconclusive: 13.7% | – | –
CC[n+]1c(C)cc2c(sc3ccccc32)c1C | inconclusive: -8.53% | – | –
Cc1ccc(S(=O)(=O)n2nc(C)cc2C)cc1 | inconclusive: -40.4% | – | –
COc1cc(/C=N/N2CCN(C3c4ccccc4-c4ccccc43)CC2)ccc1O | – | inconclusive: 16.4 µM [activator, partial curve, poor fit] | –
COc1ccc(C(=O)NCC(=O)O)cc1 | – | active: 16.4 µM | –
O=C(CSCc1cc(=O)n2nc(C3CC3)sc2n1)Nc1ccc(F)cc1 | – | inconclusive: 29.1 µM [activator, single point] | –
Cc1cccc(-n2nc3c(c2NC(=O)C2CC2)CS(=O)(=O)C3)c1C | – | inconclusive: 0.164 µM [activator, full curve, poor fit] | –
CC(C)CNC(=O)Cn1nc(C(F)(F)F)c2c1CCCC2 | inconclusive: 20.6% | – | –
CCN(CC)C(=O)CSc1ncnc2sc(C)c(C)c12 | inconclusive: 14.8% | – | –
Cc1ccc(NC(=O)N2CCCC(C(=O)O)C2)cc1 (stereo unspecified) | inactive: -5.95% | – | –

Complete entries, quoted from the list.
Cn1c(SCC(=O)c2ccc(F)cc2)nnc1-c1cccnc1 is listed as lipid storage change, negative = inhibition: inconclusive: 6.15%
COc1ccc(C(=O)NCC(=O)O)cc1 is listed as Potency: active: 16.4 µM

More results:

Compound | lipid storage change, negative = inhibition | Potency | outcome
Cc1cc2occ(CC(=O)Nc3nccs3)c2cc1C(C)C | – | – | inactive [at 46.1 µM]
Cc1ccc(NC(=O)CN(C)S(=O)(=O)c2cccc3cccnc23)cc1C | inconclusive: -44.3% | – | –
CNc1ccc(/C=C2\CSc3ccccc3C2=O)cc1[N+](=O)[O-] | inconclusive: -100% | – | –
COc1ccc([C@H]2Cc3cccc(O)c3C(=O)O2)cc1O | – | inconclusive: 6.51 µM [falling, single point] | –
CC(=O)N1CCN(C(=O)c2ccc(OC3CCN(Cc4ccccn4)CC3)cc2)CC1 | – | inconclusive: 6.51 µM [activator, partial curve] | –
Cc1ccc(N2C(=O)C3CCC(c4ccccc4)CC3C2=O)cc1 (stereo unspecified) | inconclusive: 30.1% | – | –
O=C(c1ccc(Cl)cc1)N1CCC(O)(CSc2ccc(Cl)cc2)CC1 | inconclusive: 18.5% | – | –
O=C(N/C(=C\c1ccco1)C(=O)N1CCCC1)c1ccccc1 | inconclusive: -38.6% | – | –
Cc1cc(OCC(=O)NCCN2CCOCC2)cc(C)c1Br | inconclusive: 18.4% | – | –
O=C(CSc1nc(-c2ccccc2)cc(=O)[nH]1)Nc1ccccc1F | inconclusive: 21.8% | – | –
CCOCCCn1c(NN)nc2ccccc2c1=O | inconclusive: -12.5% | – | –
Cc1ccc(S(=O)(=O)N(c2cccc(C)c2)C2CCS(=O)(=O)C2)cc1 (stereo unspecified) | inconclusive: 83.3% | – | –
CCc1nnc(NC(=O)CSc2nnc(-c3ccc(S(=O)(=O)N(CC)CC)cc3)n2CC)s1 | inconclusive: 136% | – | –
CCOc1ccc(NC2=NC(C)(C)N=C(N)N2)cc1 | – | inconclusive: 23.1 µM [falling, single point] | –
Cc1ccc(NC(=O)c2cc(N3C(=O)C4CC=CCC4C3=O)ccc2N2CCCCC2)cc1 (stereo unspecified) | inconclusive: 5.78% | – | –
O=C(c1ccc2c3n(nc2c1)-c1ccccc1CO3)N1CCOCC1 | inconclusive: 9.12% | – | –
Cc1ccc(C(=O)NCCCNC(=O)c2ccco2)cc1C | inconclusive: -10.1% | – | –
COc1ccccc1CNC(=O)c1nn(-c2ccc(C)cc2)c(=O)c2c1c1ccccc1n2C | inconclusive: 13.2% | – | –

Entries shown so far with a thiophene ring, fused or not, in the order listed:
Compound | lipid storage change, negative = inhibition | Potency | outcome
Cc1sc2nc(C(C)Nc3ccccc3N3CCOCC3)[nH]c(=O)c2c1C (stereo unspecified) | inconclusive: -10.2% | – | –
CC[n+]1c(C)cc2c(sc3ccccc32)c1C | inconclusive: -8.53% | – | –
CCN(CC)C(=O)CSc1ncnc2sc(C)c(C)c12 | inconclusive: 14.8% | – | –
